Measured values: the supplement of paper PMC3334620
In all, about 33,000 sequences were measured (“E-score (-0.5 to 0.5)”: median about -0.0014, highest 2% from about 0.25 on). Some of the results follow.

Biological target: T1, Cad1 (UniProt P24813)
T1 sequence: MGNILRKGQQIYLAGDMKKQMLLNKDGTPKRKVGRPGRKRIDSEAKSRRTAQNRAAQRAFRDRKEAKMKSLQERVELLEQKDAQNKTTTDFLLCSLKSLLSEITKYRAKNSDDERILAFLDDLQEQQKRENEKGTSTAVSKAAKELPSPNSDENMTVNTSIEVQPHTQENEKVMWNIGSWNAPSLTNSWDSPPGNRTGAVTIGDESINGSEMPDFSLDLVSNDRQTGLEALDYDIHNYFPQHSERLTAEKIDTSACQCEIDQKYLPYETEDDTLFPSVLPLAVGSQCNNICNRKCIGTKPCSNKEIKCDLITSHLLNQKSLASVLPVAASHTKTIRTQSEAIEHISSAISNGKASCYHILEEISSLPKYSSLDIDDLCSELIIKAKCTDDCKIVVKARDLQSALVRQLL
Test: PBM E-score (8-mer binding enrichment) (E-score (-0.5 to 0.5)); higher = stronger / more preferred TF binding
Conditions: protein concentration: 100 nM; construct: GST-full length
Method: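 Universal 'all 10-mer' protein binding microarrays (Agilent AMADID 015681) probed with GST-tagged S. cerevisiae TFs (full-length or DBD) made by in vitro transcription/translation (PURExpress), about 100-200 nM. Bound TF was detected with fluorescent anti-GST. Each ungapped 8-mer (which stands for itself and its reverse complement) is scored by the PBM enrichment score (E-score), a modified Wilcoxon-Mann-Whitney statistic from -0.5 to +0.5, computed with the Universal PBM Analysis Suite. Scale: above 0.35 generally sequence-specific binding.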

Sequence	PBM E-score
TGCCTACA	-0.0776
ACTAGGGG	-0.2
AATGTAAA	0.193
GTGGTTAA	0.0523
GCGGGGAC	-0.0472
CGTCGTGC	-0.00422
AGGTATAA	-0.0139
CCGGAATA	0.0963
GTTAAGCA	-0.101
GCAGACAC	0.168
ATCAAATG	0.149
GTTAGCTA	-0.0351
CGGCATGC	0.193
AGAATGCA	0.129
AGCTAGAT	0.121
ATAGGAGA	-0.222
GGCCGTAA	0.00336
TAGGTTCA	0.00473
CCCCTTGA	-0.109
ATCCACAC	-0.072
TACTTCCA	0.0837
CGTCGGTC	-0.0905

Sequence	PBM E-score
AAGTGTCG	0.159
GATGATCA	0.102
GCCATACA	0.075
ACTAATCG	0.356
CGCGCTAG	0.238
GAGCACGA	0.0497
ATCTGGGG	-0.274
CGTAAGAC	0.0326
AAAGCCCT	-0.134
GCGTCCCA	-0.0154
TAGTATAA	0.0547
AACCTCCG	-0.101
TGAAACAA	0.0338
TACGCAGA	0.119
ATCCATGC	0.0144
CCAACGTA	-0.0803
CCCTGAGA	-0.152
CGAGGCCC	-0.0676
GGACAACC	0.0243
CTAACGAC	0.0416
ACTGTGCC	0.0125
AAGATCCG	-0.185

Sequence	PBM E-score
GGTTTAGA	-0.0592
ATAGGGTC	-0.177
AGGTAGAC	-0.113
CGAAAGCA	-0.0657
GACTTCTC	0.0745
CATTGTCA	0.167
TGCACCCA	-0.0054
CCAACCCC	-0.104
ACCATTAC	0.026
CAACGTGG	0.088
ATTCACTA	0.173
TATATCGA	0.154
GAGCGGAC	-0.284
CTCGCGTA	0.0816
GATGTGGC	-0.171
GTGTACCA	-0.0325
CCAGGACC	-0.136
AGGGATGA	0.07
CAGAATTA	0.0723
CAGTGGCA	-0.241
GTTCCATA	0.0772
ACAAATGT	0.0516

Single values from the results shown:
Entry of AGGTATAA under PBM E-score: -0.0139
Entry of CCAACGTA under PBM E-score: -0.0803
Entry of AAGTGTCG under PBM E-score: 0.159
Entry of AGGGATGA under PBM E-score: 0.07
Entry of CCCCTTGA under PBM E-score: -0.109

Additional records.

Sequence	PBM E-score
CAGCAAGG	-0.251
GAGGAAGA	-0.164
AAATTTCC	0.124
AGTAGGAT	-0.0755
ATACTAGA	0.0384
TTCCAAAA	-0.036
AACGACTG	-0.0363
CGCGGGTA	0.0697
AGCTGCAT	-0.128
CACCTACG	-0.0725
ATGAGTTA	0.0121
AACACTAG	0.11
ACGTGTAT	0.0878
ATACGGCA	0.201
ATCCTCTG	-0.105
AATTGCAT	0.0616
CTAGATAA	0.029
CCGCGCTA	0.263
ATATCAAT	0.253
ACATCTGA	-0.302
CGAAGTAA	-0.0088
GCGATACA	0.106

Sequence	PBM E-score
ATGGCCCC	-0.356
ATTAAATC	0.231
ATTGATTA	0.286
GTATAATA	0.283
ACGTCGCC	-0.129
GTCCTAAA	0.111
ACCGGGGG	-0.428
GTGAGTAA	0.129
CGTGTTAC	0.12
AGGGCATA	-0.0152
TACAGGCA	-0.0526
GTGTACAC	0.217
CCTGTCTC	-0.202
AAGTGCAC	0.15
AATAATAC	0.205
CAATGTAG	-0.042
GACGTAGA	-0.227
AGGTCACC	-0.225
AGCCAGAG	-0.124
AGATCATG	-0.0578
ACGCCGGG	-0.167
